Results are given in words; binding and its absence hold for the method and conditions named. Binding seen in cells or lysates may run through a third protein. Some results given as binding are weak or reduced against the parent protein; the word gives no strength.
Biological target: p62/SQSTM1 (human (endogenous in SCC029B)) (UniProt Q13501)
Experiment: co-IP; lysates of SCC029B cells treated with 400 nM Obatoclax for 48 hours or vehicle control; EBC lysis buffer (50 mM Tris pH 7.4, 150 mM NaCl, 1 mM EDTA, 0.5% NP-40); precipitated with p62 antibody overnight at 4°C, protein G-sepharose, immunoblotting

Amino acid sequences for entries named in this document (tags omitted).
UniProt Q13546: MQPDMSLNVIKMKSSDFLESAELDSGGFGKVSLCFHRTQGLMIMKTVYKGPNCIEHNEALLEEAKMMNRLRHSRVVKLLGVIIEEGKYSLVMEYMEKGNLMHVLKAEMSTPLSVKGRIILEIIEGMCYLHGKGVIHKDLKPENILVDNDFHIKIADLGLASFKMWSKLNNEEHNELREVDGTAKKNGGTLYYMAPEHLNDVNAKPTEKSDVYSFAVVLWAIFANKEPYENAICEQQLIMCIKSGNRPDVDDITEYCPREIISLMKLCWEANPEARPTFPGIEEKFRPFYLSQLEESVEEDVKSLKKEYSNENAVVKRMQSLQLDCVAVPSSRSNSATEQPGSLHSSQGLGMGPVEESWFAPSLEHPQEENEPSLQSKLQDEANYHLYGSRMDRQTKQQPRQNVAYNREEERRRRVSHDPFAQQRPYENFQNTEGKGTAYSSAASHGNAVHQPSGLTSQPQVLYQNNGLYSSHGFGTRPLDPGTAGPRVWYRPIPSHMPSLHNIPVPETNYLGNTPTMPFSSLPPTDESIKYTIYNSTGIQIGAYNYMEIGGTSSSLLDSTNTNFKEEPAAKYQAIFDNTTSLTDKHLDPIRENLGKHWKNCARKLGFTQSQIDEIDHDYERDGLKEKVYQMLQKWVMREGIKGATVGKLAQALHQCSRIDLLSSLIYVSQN
UniProt Q9Y572: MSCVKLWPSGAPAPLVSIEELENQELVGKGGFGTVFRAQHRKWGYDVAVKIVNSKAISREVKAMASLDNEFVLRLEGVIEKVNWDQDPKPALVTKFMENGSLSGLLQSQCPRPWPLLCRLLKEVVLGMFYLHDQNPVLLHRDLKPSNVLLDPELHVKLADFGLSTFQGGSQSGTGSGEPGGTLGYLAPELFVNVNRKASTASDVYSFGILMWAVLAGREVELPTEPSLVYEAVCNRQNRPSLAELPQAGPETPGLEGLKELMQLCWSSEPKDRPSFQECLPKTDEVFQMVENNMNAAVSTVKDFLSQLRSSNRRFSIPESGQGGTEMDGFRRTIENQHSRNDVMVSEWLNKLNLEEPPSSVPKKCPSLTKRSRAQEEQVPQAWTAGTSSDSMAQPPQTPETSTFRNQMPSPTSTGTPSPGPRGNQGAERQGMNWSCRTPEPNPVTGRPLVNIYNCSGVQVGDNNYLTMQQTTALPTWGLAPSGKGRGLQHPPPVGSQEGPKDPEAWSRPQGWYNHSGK
UniProt Q13158: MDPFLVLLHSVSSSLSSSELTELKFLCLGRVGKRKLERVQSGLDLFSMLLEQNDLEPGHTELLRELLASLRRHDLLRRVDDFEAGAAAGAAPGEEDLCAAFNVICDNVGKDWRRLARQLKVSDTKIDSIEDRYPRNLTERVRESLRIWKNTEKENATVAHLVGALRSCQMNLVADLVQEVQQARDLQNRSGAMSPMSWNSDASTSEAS

Row | Substance | binding
1 | Receptor-interacting protein kinase RIP1K (from UniProt Q13546 1-671) | binds
2 | Receptor-interacting protein kinase RIP3K (from UniProt Q9Y572 1-518) | binds
3 | FADD (from UniProt Q13158 1-208) | binds
